Data as given in PubChem BioAssay AID1259308 (NCATS, 2017).

- Test: 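Knock-downs that increase output of a recombinant reporter protein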 (primary screen)
- Cell system: human HEK293 embryonic kidney cells stably expressing firefly luciferase (HEK-CMV-Luc2-Hygro)
- Knock-down reagent: single siRNA against human genes, 0.8 pmol siRNA per well
- Time to read-out: 72 h
- Detection: 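Reporter luminescence and viable-cell signal on separate replicate plates, given as percent of non-targeting control and median/MAD z-scores, plus per-cell luciferase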
- Scale: total luciferase, z-score: higher = more reporter protein produced
- Rule for the call: 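An siRNA counts as active if its total luciferase robust z-score exceeds 3; genes with two or more such siRNAs out of three were retested with fresh siRNAs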
- Meaning of the calls: active = raised luciferase; inactive = no rise
This is a random part of about 59,000 reagents. About 1,510 of all reagents (2.6%) count as active. 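Calls use total luciferase alone and ignore viability, so some active siRNAs may act by altering cell number.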 Entries without a mark were called inactive. Reagents against one gene are numbered here. Not all columns of the deposit are shown.

| gene symbol | siRNA no. | total luciferase, z-score |
| --- | --- | --- |
| PMVK (phosphomevalonate kinase) | 1 | -0.771 |
| PMVK (phosphomevalonate kinase) | 2 | 2.67 |
| PMVK (phosphomevalonate kinase) | 3 | 3.24 (active) |
| RANBP1P1 (RANBP1 pseudogene 1) | 1 | -2.06 |
| RANBP1P1 (RANBP1 pseudogene 1) | 2 | 0.799 |
| RANBP1P1 (RANBP1 pseudogene 1) | 3 | -0.426 |
| LRP2BP (LRP2 binding protein) | 1 | 0.31 |
| LRP2BP (LRP2 binding protein) | 2 | -0.573 |
| LRP2BP (LRP2 binding protein) | 3 | 0.953 |
| EIF5 (eukaryotic translation initiation factor 5) | 1 | 0.653 |
| EIF5 (eukaryotic translation initiation factor 5) | 2 | -0.179 |
| EIF5 (eukaryotic translation initiation factor 5) | 3 | -1.01 |
| TTBK1 (tau tubulin kinase 1) | 1 | -0.354 |
| TTBK1 (tau tubulin kinase 1) | 2 | -0.264 |
| TTBK1 (tau tubulin kinase 1) | 3 | -1.68 |
| CEP128 (centrosomal protein 128) | 1 | 0.0878 |
| CEP128 (centrosomal protein 128) | 2 | 0.252 |
| CEP128 (centrosomal protein 128) | 3 | -0.409 |
| TLK2 (tousled like kinase 2) | 1 | 2.83 |
| TLK2 (tousled like kinase 2) | 2 | -0.196 |
| TLK2 (tousled like kinase 2) | 3 | 2.61 |
| RYR1 (ryanodine receptor 1) | 1 | -0.069 |
| RYR1 (ryanodine receptor 1) | 2 | -0.913 |
| RYR1 (ryanodine receptor 1) | 3 | -1.66 |
| SRP14 (signal recognition particle 14) | 1 | -0.944 |
| SRP14 (signal recognition particle 14) | 2 | -1.81 |
| SRP14 (signal recognition particle 14) | 3 | -0.6 |
| OR9A2 (olfactory receptor family 9 subfamily A member 2) | 1 | 0.553 |
| OR9A2 (olfactory receptor family 9 subfamily A member 2) | 2 | 0.157 |
| OR9A2 (olfactory receptor family 9 subfamily A member 2) | 3 | 0.505 |
| CIMIP7 (ciliary microtubule inner protein 7) | 1 | -1.8 |
| CIMIP7 (ciliary microtubule inner protein 7) | 2 | 0.959 |
| CIMIP7 (ciliary microtubule inner protein 7) | 3 | 4.05 (active) |
| DMPK (DM1 protein kinase) | 1 | -0.944 |
| DMPK (DM1 protein kinase) | 2 | 0.85 |
| DMPK (DM1 protein kinase) | 3 | 1.13 |
| PSMD9 (proteasome 26S subunit, non-ATPase 9) | 1 | -0.12 |
| PSMD9 (proteasome 26S subunit, non-ATPase 9) | 2 | -1.05 |
| PSMD9 (proteasome 26S subunit, non-ATPase 9) | 3 | 0.653 |

An excerpt taken from the entries so far, as a working copy:
| gene symbol | siRNA no. | total luciferase, z-score |
| --- | --- | --- |
| CEP128 (centrosomal protein 128) | 2 | 0.252 |
| CEP128 (centrosomal protein 128) | 3 | -0.409 |
| TLK2 (tousled like kinase 2) | 1 | 2.83 |
